The subject of the data set is UDP-glucuronosyl transferase. The data set is described as follows: in vitro. The following applies: human, HLM 0.5 mg/mL, morphine 0.1-7.5 mM.

As for `CN1CC[C@]23c4c5ccc(O)c4O[C@H]2[C@@H](O)C=C[C@H]3[C@H]1C5` [Morphine], the Km at 30 min was found to be 2590 µM (pH 7.4, Km (M3G)) and 2110 µM (pH 7.4, Km (M6G)).

One may read the Km as the substrate concentration at which the rate is half of its maximum.
